This is an account of results in patent publication US20220073922.

Chains of the proteins cited; added tags and fusions are not shown. Chains listed by the source or under a name are the forms on record and can include a tag or linker.
UniProt P15692, other isoform, or with tags, fused parts or gaps: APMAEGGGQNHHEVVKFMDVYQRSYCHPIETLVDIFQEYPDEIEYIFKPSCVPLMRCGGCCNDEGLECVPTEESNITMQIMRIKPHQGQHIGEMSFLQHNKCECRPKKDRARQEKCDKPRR
UniProt Q00731, other isoform, or with tags, fused parts or gaps: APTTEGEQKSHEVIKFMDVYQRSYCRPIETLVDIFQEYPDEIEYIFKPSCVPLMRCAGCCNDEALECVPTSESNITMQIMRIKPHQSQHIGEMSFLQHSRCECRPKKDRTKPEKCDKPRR
VEGF-165 (VEGFA isoform 165) (Homo sapiens), one chain, as listed by the source: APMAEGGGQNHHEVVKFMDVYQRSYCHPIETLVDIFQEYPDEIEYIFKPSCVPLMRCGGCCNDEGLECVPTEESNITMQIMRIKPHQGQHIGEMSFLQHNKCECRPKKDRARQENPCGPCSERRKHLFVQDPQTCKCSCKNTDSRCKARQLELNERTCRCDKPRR

What all share (assay): flow cytometry
In general terms: In flow cytometry, cells or beads pass a laser one at a time.

In data set [1] the target is VEGF-121 (VEGFA isoform 121) (Homo sapiens) (UniProt P15692). To be noted: 2'-F all positions, purified recombinant protein, label: biotin.
The target in data set [2] is VEGF-120 (Mus musculus) (UniProt Q00731). The settings on record: 2'-F all positions; range over all VEGF isoforms and vendors; PBSMCT, 37 C; purified recombinant protein; protein details: Shenandoah Biotechnology 200-52; label: biotin; variant of AMS0421.
The test system of data set [3] is VEGF-165 (VEGFA isoform 165) (Homo sapiens). To be noted: 2'-F all positions, PBSMCT, 37 C, purified recombinant protein, label: biotin.

For some assays here: The exact form of at least one protein or probe is not confirmed.

As a reminder, the Kd is the equilibrium constant for the complex coming apart. Consider “AUUCUGUCUUUUUAAAUAAUGUCCCCUUGUUGCACAUUACAGAA [AMS0403]”, for which the Kd in data set [1] (PBSMCT, 37 C) is > 0.1 µM.

Consider “CGCUAGAUGGCUAACACUAUUGUGGAGAUGCACUAGCG [AMS0427]”, for which the binding result in data set [2] was “binds”.

In the case of “CGUGGCGAUGCGUUCCGUCGAGGAUCGGCGAACACG [AMS0425.16]”, the Kd in data set [1] (PBSMCT, 37 C, variant of AMS0425) is > 0.1 µM; in data set [3] (variant of AMS0425), > 0.1 µM.

In the case of “GCUCUUCAAUGUUAACUACCAAUCGUUGAUCGUUUUGCAGAAAAUUCC [AMS0405]”, the Kd in data set [1] (PBSMCT, 37 C) is > 0.1 µM.

As for “GCUCUUCAGCCCCGCGCCGGGUCCCACUCUGCGCCGCUC [AMS0401]”, the Kd in data set [1] (DPBS pH 7.2, 2.5 mM MgCl2, 1 mM CaCl2, 0.01% Tween-20, 37 C) is > 0.1 µM.

Consider “GCUCUUCGGUGUUAACUACCAAUCGUUGAUCGUUUUGCAAAAAAUUCC [AMS0406]”, for which the Kd in data set [1] (PBSMCT, 37 C) was > 0.1 µM.

Take “GGAAAACAGUAUAAUGUCUUGUUUCUUCUC [AMS0410]”: in data set [3], the Kd was > 0.1 µM.

Take “GGUUUAUCUUAACUUUCUGCUACGAUACAGUUUUUGUUGA [AMS0411]”: in data set [3], the Kd is > 0.1 µM.

For “GUGCUUCAUAUCCGUCCCCCCCUUGCUGCG [AMS0402]”, the Kd in data set [1] (PBSMCT, 37 C) is > 0.1 µM.

“UCCGCUUGCGGAGCACCUUCUGUAUUCUGC [AMS0409]”: in data set [3], the dissociation constant Kd was > 0.1 µM.

In the case of “UCCGCUUGCGGAGCAGCUUCUGUAUUCUGC [AMS0407]”, in data set [3], the Kd is > 0.1 µM.

Consider “UCCGCUUGCGGAGCAUCUUCUGUAUUCUGC [AMS0408]”, for which the Kd in data set [3] is > 0.1 µM.

For “UUCUGUCUUUUUAGAUAAUGUCCCCUUGUUGCACAUUACA [AMS0404]”, the Kd in data set [1] (PBSMCT, 37 C) was > 0.1 µM.
